According to publication PMC8395132:
Results are given in words; binding and its absence hold for the method and conditions named. In cells and extracts the contact can be indirect. Some entries that bind do so weakly or less than the wild type. Blank lines part the entries; values can stand above or below the molecule they belong to.

Amino acid sequences for entries named in this document (tags omitted).
UniProt P21926: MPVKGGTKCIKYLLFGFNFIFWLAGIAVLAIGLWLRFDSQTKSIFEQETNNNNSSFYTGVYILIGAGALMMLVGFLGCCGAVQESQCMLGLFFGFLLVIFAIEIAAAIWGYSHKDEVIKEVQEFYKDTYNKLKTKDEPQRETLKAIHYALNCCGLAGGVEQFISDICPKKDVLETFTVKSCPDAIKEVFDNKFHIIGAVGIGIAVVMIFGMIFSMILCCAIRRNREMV

Tests used:
[1] = target: T1, CD82 (UniProt P27701); test: co-IP; surface-biotinylated HB2 cells, treated or not with PPMP, lysed in 30 mM Tris pH 7.4, 150 mM NaCl, 1% Brij97; 1 ug primary antibody and protein G-sepharose beads, 2 h at 4 °C; washes with 0.5% Brij97; non-reducing SDS-PAGE, blot with streptavidin-Alexa680
T1 sequence (chain, biotin (cells incubated with biotin before lysis)): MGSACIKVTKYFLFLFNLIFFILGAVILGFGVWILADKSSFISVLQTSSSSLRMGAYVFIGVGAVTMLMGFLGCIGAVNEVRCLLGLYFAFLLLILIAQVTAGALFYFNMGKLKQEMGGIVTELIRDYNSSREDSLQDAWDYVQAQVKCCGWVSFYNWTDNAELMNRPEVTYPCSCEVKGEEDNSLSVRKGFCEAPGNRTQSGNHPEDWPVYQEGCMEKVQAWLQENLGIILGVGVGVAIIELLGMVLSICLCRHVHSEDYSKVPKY

[2] = target: CD9 (human (endogenous in HB2)) (UniProt P21926); test: as above

binding [1]: binds
Molecule: CD9 (from UniProt P21926 1-228)

binding [1]: binds
binding [2]: binds
B1: CD81 (protein, UniProt P60033 1-236)
chain: MGVEGCTKCIKYLLFVFNFVFWLAGGVILGVALWLRHDPQTTNLLYLELGDKPAPNTFYVGIYILIAVGAVMMFVGFLGCYGAIQESQCLLGTFFTCLVILFACEVAAGIWGFVNKDQIAKDVKQFYDQALQQAVVDDDANNAKAVVKTFHETLDCCGSSTLTALTTSVLKNNLCPSGSNIISNLFKEDCHQKIDDLFSGKLYLIGIAAIVVAVIMIFEMILSMVLCCGIRNSSVY
modifications: biotin (cells incubated with biotin before lysis)
